According to publication PMC10978910:
Results are given in words; binding and its absence hold for the method and conditions named. For some of these results: In cells and extracts the contact can be indirect. Some entries that bind do so weakly or less than the wild type. Tags and fused reporters may be left off the sequences shown.

By UniProt entry, the sequences of proteins in these tests, tags left out.
UniProt Q9FIJ0: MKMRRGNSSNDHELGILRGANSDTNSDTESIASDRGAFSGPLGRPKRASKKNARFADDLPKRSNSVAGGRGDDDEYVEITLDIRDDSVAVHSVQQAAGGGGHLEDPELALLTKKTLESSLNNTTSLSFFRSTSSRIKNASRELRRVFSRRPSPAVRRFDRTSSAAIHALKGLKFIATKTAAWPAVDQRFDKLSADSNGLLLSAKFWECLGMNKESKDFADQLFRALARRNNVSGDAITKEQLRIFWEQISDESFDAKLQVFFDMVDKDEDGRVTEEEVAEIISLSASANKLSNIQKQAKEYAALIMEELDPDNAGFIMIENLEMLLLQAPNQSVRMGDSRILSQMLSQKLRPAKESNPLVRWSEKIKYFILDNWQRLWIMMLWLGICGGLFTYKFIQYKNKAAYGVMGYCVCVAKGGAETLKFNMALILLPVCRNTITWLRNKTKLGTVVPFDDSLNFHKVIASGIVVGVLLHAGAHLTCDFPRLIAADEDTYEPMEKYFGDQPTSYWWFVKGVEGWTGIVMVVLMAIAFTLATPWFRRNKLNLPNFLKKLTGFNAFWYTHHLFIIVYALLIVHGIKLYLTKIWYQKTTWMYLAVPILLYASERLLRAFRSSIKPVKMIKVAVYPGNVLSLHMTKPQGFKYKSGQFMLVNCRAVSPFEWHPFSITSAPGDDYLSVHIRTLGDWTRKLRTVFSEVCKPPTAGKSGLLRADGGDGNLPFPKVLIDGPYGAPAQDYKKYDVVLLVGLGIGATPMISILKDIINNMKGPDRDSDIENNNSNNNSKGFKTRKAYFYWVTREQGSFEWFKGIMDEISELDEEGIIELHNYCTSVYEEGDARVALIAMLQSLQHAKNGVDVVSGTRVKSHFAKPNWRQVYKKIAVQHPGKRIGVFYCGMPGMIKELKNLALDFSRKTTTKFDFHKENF

How the values were obtained:
[1] = target: T1, ALR1-nLUC (Arabidopsis thaliana) (UniProt Q9ZVR7); assay: split reporter; split luciferase complementation; 35S:cLUC-Rboh and 35S:ALR1-nLUC co-infiltrated into N. benthamiana leaves, imaged 48 h after infiltration
T1 sequence: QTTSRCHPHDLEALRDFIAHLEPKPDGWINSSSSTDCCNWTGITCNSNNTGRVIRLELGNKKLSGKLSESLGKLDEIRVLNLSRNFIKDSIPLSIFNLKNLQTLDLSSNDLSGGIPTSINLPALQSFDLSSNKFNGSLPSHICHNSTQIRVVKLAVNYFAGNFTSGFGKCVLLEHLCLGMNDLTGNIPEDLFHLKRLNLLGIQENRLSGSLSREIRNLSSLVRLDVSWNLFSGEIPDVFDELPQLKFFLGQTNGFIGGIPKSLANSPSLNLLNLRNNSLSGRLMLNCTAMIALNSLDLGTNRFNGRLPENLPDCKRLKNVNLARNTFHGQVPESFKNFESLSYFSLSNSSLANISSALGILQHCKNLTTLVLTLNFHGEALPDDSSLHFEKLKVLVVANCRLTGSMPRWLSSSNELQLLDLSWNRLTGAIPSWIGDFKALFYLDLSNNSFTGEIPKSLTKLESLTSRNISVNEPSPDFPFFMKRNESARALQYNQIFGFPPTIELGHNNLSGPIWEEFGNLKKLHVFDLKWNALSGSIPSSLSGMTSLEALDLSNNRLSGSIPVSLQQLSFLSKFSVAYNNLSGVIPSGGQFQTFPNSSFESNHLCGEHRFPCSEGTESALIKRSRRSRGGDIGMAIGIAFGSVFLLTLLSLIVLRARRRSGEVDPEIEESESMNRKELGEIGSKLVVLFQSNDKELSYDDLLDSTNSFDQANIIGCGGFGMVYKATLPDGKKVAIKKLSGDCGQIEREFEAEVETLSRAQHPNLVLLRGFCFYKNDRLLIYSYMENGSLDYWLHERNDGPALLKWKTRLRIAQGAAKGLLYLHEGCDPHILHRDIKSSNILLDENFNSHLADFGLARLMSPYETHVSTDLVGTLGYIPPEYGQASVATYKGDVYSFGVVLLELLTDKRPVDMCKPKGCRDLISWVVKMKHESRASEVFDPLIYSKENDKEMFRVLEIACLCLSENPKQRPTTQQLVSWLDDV

[2] = target: T2, BD-ALR1 (pBT3-STE-ALR1) (Arabidopsis thaliana) (UniProt Q9ZVR7); assay: two-hybrid; split-ubiquitin membrane yeast two-hybrid, BD-ALR1 (pBT3-STE) co-transformed with AD preys (pPR3-N) into NMY51; growth on SD -Ade/His/Leu/Trp
T2 sequence: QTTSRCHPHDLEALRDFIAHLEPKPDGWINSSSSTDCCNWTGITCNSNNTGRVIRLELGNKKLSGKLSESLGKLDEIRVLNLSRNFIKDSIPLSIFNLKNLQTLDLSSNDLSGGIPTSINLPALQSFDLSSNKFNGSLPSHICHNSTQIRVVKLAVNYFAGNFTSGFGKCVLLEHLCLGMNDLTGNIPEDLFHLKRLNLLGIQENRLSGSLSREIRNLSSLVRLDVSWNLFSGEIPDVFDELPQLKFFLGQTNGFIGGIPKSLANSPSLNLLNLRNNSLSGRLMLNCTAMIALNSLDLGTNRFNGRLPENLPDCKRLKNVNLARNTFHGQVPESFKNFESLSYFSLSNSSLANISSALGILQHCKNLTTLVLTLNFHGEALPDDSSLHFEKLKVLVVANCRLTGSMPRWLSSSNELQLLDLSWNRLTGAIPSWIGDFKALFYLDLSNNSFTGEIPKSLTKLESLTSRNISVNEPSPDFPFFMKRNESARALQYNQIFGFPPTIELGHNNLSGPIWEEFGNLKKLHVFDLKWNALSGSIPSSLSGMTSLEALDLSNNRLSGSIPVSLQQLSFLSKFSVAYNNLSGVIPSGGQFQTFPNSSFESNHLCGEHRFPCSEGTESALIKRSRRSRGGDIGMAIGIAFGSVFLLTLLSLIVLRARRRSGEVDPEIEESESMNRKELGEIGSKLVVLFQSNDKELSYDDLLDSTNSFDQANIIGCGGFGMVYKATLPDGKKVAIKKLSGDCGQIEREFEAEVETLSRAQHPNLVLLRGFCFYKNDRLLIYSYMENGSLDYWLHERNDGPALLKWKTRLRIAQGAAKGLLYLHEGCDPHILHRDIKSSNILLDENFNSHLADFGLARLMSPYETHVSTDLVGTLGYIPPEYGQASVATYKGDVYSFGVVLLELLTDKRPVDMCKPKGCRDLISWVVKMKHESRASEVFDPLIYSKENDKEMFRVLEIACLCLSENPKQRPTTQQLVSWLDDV

[3] = target: T2, BD-ALR1 (pBT3-STE-ALR1) (Arabidopsis thaliana); assay: two-hybrid; split-ubiquitin membrane yeast two-hybrid screen for ALR1 interactants; 18 potential interactors
[4] = target: T3, ALR1-nYFP (Arabidopsis thaliana) (UniProt Q9ZVR7); assay: split reporter; BiFC (nYFP/cYFP) in Arabidopsis mesophyll protoplasts, 10-12 h in W5 solution; control, 50 µM AlCl3 or 50 µM LaCl3 for 10 min before detection
T3 sequence: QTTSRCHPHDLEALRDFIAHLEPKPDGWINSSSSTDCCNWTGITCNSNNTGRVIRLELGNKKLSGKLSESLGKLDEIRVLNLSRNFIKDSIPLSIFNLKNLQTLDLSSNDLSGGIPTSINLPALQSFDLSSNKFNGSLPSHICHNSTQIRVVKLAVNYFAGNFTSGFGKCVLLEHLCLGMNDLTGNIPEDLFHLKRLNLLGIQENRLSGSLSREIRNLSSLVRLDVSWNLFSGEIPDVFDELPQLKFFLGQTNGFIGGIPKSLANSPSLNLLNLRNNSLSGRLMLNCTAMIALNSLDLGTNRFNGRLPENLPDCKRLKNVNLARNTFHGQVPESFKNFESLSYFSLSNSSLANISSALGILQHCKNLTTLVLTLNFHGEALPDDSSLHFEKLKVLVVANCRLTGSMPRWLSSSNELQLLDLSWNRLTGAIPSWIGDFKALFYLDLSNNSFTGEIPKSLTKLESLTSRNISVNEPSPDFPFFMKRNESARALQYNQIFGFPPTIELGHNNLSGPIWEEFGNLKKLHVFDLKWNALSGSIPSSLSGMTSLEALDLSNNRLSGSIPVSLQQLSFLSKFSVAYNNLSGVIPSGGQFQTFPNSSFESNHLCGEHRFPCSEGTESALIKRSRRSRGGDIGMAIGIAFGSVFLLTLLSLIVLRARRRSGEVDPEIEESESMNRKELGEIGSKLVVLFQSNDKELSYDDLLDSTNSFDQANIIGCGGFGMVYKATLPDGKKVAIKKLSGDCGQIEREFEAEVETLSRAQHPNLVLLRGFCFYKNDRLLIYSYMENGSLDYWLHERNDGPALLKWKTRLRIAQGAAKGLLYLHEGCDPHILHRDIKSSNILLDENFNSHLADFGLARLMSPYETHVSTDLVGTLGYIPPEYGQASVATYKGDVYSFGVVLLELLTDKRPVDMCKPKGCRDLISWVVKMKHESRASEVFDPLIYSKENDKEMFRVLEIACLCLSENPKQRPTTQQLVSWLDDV

## cLUC-RbohD (from UniProt Q9FIJ0 1-921) (enzyme)
[1]
  binding: binds

## AD-RbohD (pPR3-N-RbohD) (from UniProt Q9FIJ0 1-921) (enzyme)
[2]
  binding: binds
[3]
  binding: binds

## RbohD-cYFP (from UniProt Q9FIJ0 1-921) (enzyme)
[4]
  binding: binds
